Assay results from PubChem BioAssay AID330 (DTP/NCI, 2004).
The list does not hold the whole screen: it is rich in T/C values a quarter to a half above the control, in often repeated tests (any T/C) and in doses without a T/C. Further doses and runs are listed elsewhere. T/C: endpoint of the treated group in % of that of the vehicle group. Some doses have a count of surviving animals in place of a T/C: the source files T/C as zero there, which appears to mark a toxic dose or a test without result, not a measured value. Some survivor counts are full or nearly so, which does not show that the dose was tolerated: the source hardly ever lists a survival T/C far under the control, and the zero likely stands for such cases as well. Counts of survivors are from the toxicity check (mostly the fifth day) where no day follows; animals may have died later. Schedule codes are those of the source, taken here to give the interval after Q, in days (D) or hours (H), and the number of doses after X. Some structures stand for samples that the source files as different forms (salt, stereo form or complex); doses refer to the form tested. Some entries hold several experiments; their values stand side by side, smallest first. Additions like (4×) stand for listed records that agree. Where survival is the endpoint, the PubChem record calls one and a half times the control and up active, and a quarter to a half above the control has no call in these data; cut-offs in other NCI protocols can differ. Some T/C values are followed by the survivors on the day toxicity was checked, most often the fifth; without a count, all were alive then.

Tested on: P388 leukemia ip, CD2F1 mice, survival T/C
Assay: NCI In Vivo Anticancer Drug Screen. Data for tumor model P388 Leukemia (intraperitoneal) in CD2F1 (CDF1) mice
Conditions: T/C endpoint: median survival time, higher T/C = longer survival
[1] = dose: 6.25 mg/kg/injection, schedule: Q01DX009 (ip), vehicle: saline
[2] = dose: 12.5 mg/kg/injection, schedule: Q01DX009 (ip), vehicle: saline
[3] = dose: 25.0 mg/kg/injection, schedule: Q01DX009 (ip), vehicle: saline
[4] = dose: 50.0 mg/kg/injection, schedule: Q01DX009 (ip), vehicle: saline
[5] = dose: 100.0 mg/kg/injection, schedule: Q01DX009 (ip), vehicle: saline with Tween-80
[6] = dose: 200.0 mg/kg/injection, schedule: Q01DX009 (ip), vehicle: saline with Tween-80
[7] = dose: 200.0 mg/kg/injection, schedule: Q01DX009 (ip), vehicle: Klucel (hydroxypropylcellulose) (HPC)
[8] = dose: 100.0 mg/kg/injection, schedule: Q01DX005 (ip), vehicle: saline with Tween-80
[9] = dose: 100.0 mg/kg/injection, schedule: Q01DX009 (ip), vehicle: saline
[10] = dose: 25.0 mg/kg/injection, schedule: Q01DX009 (ip), vehicle: saline with Tween-80
[11] = dose: 50.0 mg/kg/injection, schedule: Q01DX009 (ip), vehicle: water
[12] = dose: 100.0 mg/kg/injection, schedule: Q01DX005 (ip), vehicle: Klucel (hydroxypropylcellulose) (HPC)
[13] = dose: 200.0 mg/kg/injection, schedule: Q01DX005 (ip), vehicle: Klucel (hydroxypropylcellulose) (HPC)
[14] = dose: 200.0 mg/kg/injection, schedule: Q01DX005 (ip), vehicle: saline with Tween-80
[15] = dose: 200.0 mg/kg/injection, schedule: Q01DX009 (ip), vehicle: saline
[16] = dose: 25.0 mg/kg/injection, schedule: Q01DX009 (ip), vehicle: water
[17] = dose: 200.0 mg/kg/injection, schedule: Q01DX009 (ip), vehicle: water
[18] = dose: 400.0 mg/kg/injection, schedule: Q01DX009 (ip), vehicle: water
[19] = dose: 240.0 mg/kg/injection, schedule: Q01DX005 (ip), vehicle: Klucel (hydroxypropylcellulose) (HPC)

O=C(Nc1ccc(Cl)c(Cl)c1)n1cnc2ccccc21
survivor count [1]: 5 of 6 | T/C [2]: 97 and 106 % of control (2×) | survivor count [2]: 6 of 6 | T/C [3]: 93, 107, 116 % of control | survivor count [3]: 5 of 6 | T/C [4]: 112, 115, 123 % of control | survivor count [4]: 6 of 6 | survivor count [5]: 6 of 6 | survivor count [6]: 5 of 6

O=C1CC2(CCCCC2)C(=O)N1c1cc([N+](=O)[O-])ccn1
survivor count (dose: 100.0 mg/kg/injection, schedule: Q01DX009 (ip), vehicle: Klucel (hydroxypropylcellulose) (HPC)): 0 of 6 | survivor count [7]: 0 of 6

COc1cccc(Oc2ccc(C)c[n+]2CC(C)=O)c1
survivor count [8]: 1 of 5

COc1cc(C=Nc2cc(Cl)c(O)c(Cl)c2)ccc1N(CCCl)CCCl
survivor count (dose: 37.5 mg/kg/injection, schedule: Q04DX003 (ip), vehicle: saline): 3 of 6

C=C1C=[n+]2ccccc2=N1
survivor count [9]: 1 of 6

OCN(CO)c1nc(N(CO)CO)nc(N(CO)CO)n1
survivor count [10]: 6 of 10 | survivor count [5]: 1 of 10

O=NNc1ncc(Sc2ccccc2)nc1Sc1ccccc1
survivor count (dose: 3.12 mg/kg/injection, schedule: Q01DX009 (ip), vehicle: water): 6 of 6 | T/C [11]: 125 and 140 % of control

CNC(=O)Nc1ccnc(=O)[nH]1
T/C [12]: 126 % of control | T/C [13]: 137 % of control [5 of 6 alive]

CN(C)CCCNc1c2ccc(Cl)cc2nc2ccc(O)cc12
T/C (dose: 3.13 mg/kg/injection, schedule: Q01DX009 (ip), vehicle: saline): 133 % of control | T/C [1]: 144 % of control | T/C [2]: 135 % of control | survivor count [3]: 6 of 6

Cc1cc[n+](C2=C(Nc3ccccc3)C(=O)c3ccccc3C2=O)cc1
survivor count [14]: 0 of 6

O=c1n2ccccc2nc2nc3ccccc3n12
survivor count (dose: 240.0 mg/kg/injection, schedule: Q01DX005 (ip), vehicle: saline with Tween-80): 6 of 6

O=C1C2C3C=CC(C2C(=O)N1CN1CCSCC1)C1C2C(=O)N(CN4CCSCC4)C(=O)C2C31 (stereo not given)
T/C [5]: 148 % of control | survivor count (dose: 400.0 mg/kg/injection, schedule: Q01DX009 (ip), vehicle: saline with Tween-80): 6 of 6

CSc1nnc2nc[nH]n12
survivor count (dose: 400.0 mg/kg/injection, schedule: Q01DX001 (ip), vehicle: saline with Tween-80): 6 of 6

Cc1ccc2nc(N/N=C/c3ccccn3)cc(C)c2c1
T/C [14]: 125 [5 of 6 alive] and 137 % of control | survivor count (dose: 300.0 mg/kg/injection, schedule: Q01DX005 (ip), vehicle: saline with Tween-80): 3 of 6 | survivor count (dose: 400.0 mg/kg/injection, schedule: Q01DX005 (ip), vehicle: saline with Tween-80): 0 of 6

N=C(N)SCc1nc(-c2ccc(Cl)cc2)no1
survivor count [9]: 4 of 6 | survivor count [15]: 4 of 6

CC1(C)Nc2cccc3c(N=Nc4ccc(N=Nc5ccccc5)c5ccccc45)ccc(c23)N1
T/C [6]: 125 % of control

CC(O)CN(CCN(CC(C)O)CC(C)O)CC(C)O.[Cl-].[Zn+2] (stereo not given)
T/C [4]: 128 [4 of 6 alive] and 134 % of control | survivor count [9]: 0 of 6 | survivor count [15]: 0 of 6

CCOC(=O)/C=C(\C)SC1=CC(=O)c2ccccc2C1=O
survivor count [5]: 3 of 6 | survivor count [6]: 1 of 6

OCC1OC2OC3C(CO)OC(OC4C(CO)OC(OC5C(CO)OC(OC6C(CO)OC(OC7C(CO)OC(OC1C(O)C2O)C(O)C7O)C(O)C6O)C(O)C5O)C(O)C4O)C(O)C3O (stereo not given) (tested in a mixture with another compound)
T/C [16]: 133 % of control | T/C [11]: 142 % of control (2×) | T/C (dose: 100.0 mg/kg/injection, schedule: Q01DX009 (ip), vehicle: water): 129 % of control | T/C [17]: 134 % of control | survivor count [17]: 5 of 6 and 6 of 6 | survivor count [18]: 0 of 6

CN1CC2Cc3ccc(O)cc3C(C)(C2)C1 (stereo not given)
survivor count [5]: 0 of 6 | survivor count [6]: 0 of 6

O=C(O)/C=N/NS(=O)(=O)c1ccccc1
T/C (dose: 22.0 mg/kg/injection, schedule: Q01DX009 (ip), vehicle: water): 128 % of control | T/C [16]: 131 % of control | T/C (dose: 33.0 mg/kg/injection, schedule: Q01DX009 (ip), vehicle: water): 137 % of control | T/C [11]: 138 % of control | survivor count [17]: 6 of 6

C=CCc1ccccc1C1=[N+](C)C(C)(C)CO1
survivor count (dose: 100.0 mg/kg/injection, schedule: Q04DX002 (ip), vehicle: saline with Tween-80): 6 of 6 | survivor count (dose: 200.0 mg/kg/injection, schedule: Q04DX002 (ip), vehicle: saline with Tween-80): 1 of 6 | survivor count (dose: 400.0 mg/kg/injection, schedule: Q04DX002 (ip), vehicle: saline with Tween-80): 0 of 6

Cn1c(=S)[nH]c2sc3c(c2c1=O)CCCC3
survivor count (dose: 60.0 mg/kg/injection, schedule: Q01DX005 (ip), vehicle: saline with Tween-80): 4 of 6

Oc1ccccc1C1=NC(c2ccccc2)NC(c2ccccc2)C1 (stereo not given)
survivor count [6]: 6 of 6

NC(=O)NC(=O)/C=C/C(=O)OCCCl
survivor count [12]: 4 of 6 | survivor count [13]: 0 of 6

CN(C)c1ccc(N=Cc2cc[n+](C)cc2)cc1
survivor count [9]: 0 of 6

COc1cc([N+](=O)[O-])cc2c1OC1(C=C2)Oc2ccccc2N1C (stereo not given)
survivor count (dose: 60.0 mg/kg/injection, schedule: Q01DX005 (ip), vehicle: Klucel (hydroxypropylcellulose) (HPC)): 1 of 6 | survivor count [19]: 5 of 6

CCOC(=O)C(CNc1ccc(OCc2ccccc2)cc1)NC(=O)c1ccccc1 (stereo not given)
survivor count (dose: 400.0 mg/kg/injection, schedule: Q01DX009 (ip), vehicle: saline): 6 of 6

O=c1c2cc(F)ccc2nnn1-c1ccccc1
survivor count [9]: 6 of 6

CN=C(N)NN=C(c1ccc(F)cc1)c1ccc(F)cc1
T/C (dose: 25.0 mg/kg/injection, schedule: Q04DX002 (ip), vehicle: saline with Tween-80): 146 and 147 % of control | survivor count (dose: 50.0 mg/kg/injection, schedule: Q04DX002 (ip), vehicle: saline with Tween-80): 6 of 6

C=C=C(COC(C)=O)ON1CCC(C)CC1
survivor count (dose: 72.5 mg/kg/injection, schedule: Q01DX001 (ip), vehicle: saline): 0 of 6 | survivor count (dose: 145.0 mg/kg/injection, schedule: Q01DX001 (ip), vehicle: saline): 0 of 6 | survivor count (dose: 290.0 mg/kg/injection, schedule: Q01DX001 (ip), vehicle: saline): 1 of 6

CC(=O)OC(NC(=O)c1cc(C)cc(C)c1)c1ccncc1 (stereo not given)
survivor count [13]: 0 of 6

O=C1c2cccc([N+](=O)[O-])c2C(=O)N1CC[P+](c1ccccc1)(c1ccccc1)c1ccccc1
survivor count [17]: 0 of 6 | survivor count [18]: 0 of 6

O=c1[nH]cnc2cc([N+](=O)[O-])ccc12
survivor count [13]: 1 of 5

CN(C)C(=O)Nc1cccc2c(NC(=O)N(C)C)cccc12
T/C [7]: 128 % of control

COc1ccc(S(=O)(=O)F)cc1NC(C)=O
survivor count [19]: 1 of 6

NC(N)=N/N=C/c1nccc2ccccc12
survivor count [8]: 0 of 6 | survivor count [14]: 0 of 6 (2×) and 1 of 6

CCn1c(N)c(C(=S)NC)c(=O)n(CC)c1=O
survivor count [15]: 6 of 6

CCCN(CCC)C(=O)c1ccc([N+](=O)[O-])cc1
survivor count [10]: 6 of 6 | T/C (dose: 50.0 mg/kg/injection, schedule: Q01DX009 (ip), vehicle: saline with Tween-80): 141 % of control

CCN(CC)CCNc1ncnc(N)c1C(=C(C)C)c1ccc(Cl)cc1
survivor count [5]: 4 of 6 | survivor count [6]: 4 of 6

C=C(Cl)C(=NC(C)(C)C)Nc1ccccc1Cl
survivor count (dose: 100.0 mg/kg/injection, schedule: Q01DX005 (ip), vehicle: saline): 1 of 6 | survivor count (dose: 200.0 mg/kg/injection, schedule: Q01DX005 (ip), vehicle: saline): 0 of 6 and 1 of 6
